In the experiment the target is ΔCRD FLAG–FZD6–Venus (human) (UniProt O60353). Kind of experiment: FRET or BRET; direct BRET in living, transiently transfected cells; Nluc–DVL2 as donor, Venus-tagged FZD6 as acceptor; WNT-5A in ΔFZD1–10 HEK293 cells, SAG1.3 in ΔSMO HEK293 cells; acceptor:donor ratio on the plateau of the saturation curve; HBSS, read 5 min after the ligand.

The chains behind the UniProt entries cited, without tags or fusion partners. Where a name states a change or a piece, a line headed by the entry shows the natural chain unless it says otherwise.
UniProt O60353: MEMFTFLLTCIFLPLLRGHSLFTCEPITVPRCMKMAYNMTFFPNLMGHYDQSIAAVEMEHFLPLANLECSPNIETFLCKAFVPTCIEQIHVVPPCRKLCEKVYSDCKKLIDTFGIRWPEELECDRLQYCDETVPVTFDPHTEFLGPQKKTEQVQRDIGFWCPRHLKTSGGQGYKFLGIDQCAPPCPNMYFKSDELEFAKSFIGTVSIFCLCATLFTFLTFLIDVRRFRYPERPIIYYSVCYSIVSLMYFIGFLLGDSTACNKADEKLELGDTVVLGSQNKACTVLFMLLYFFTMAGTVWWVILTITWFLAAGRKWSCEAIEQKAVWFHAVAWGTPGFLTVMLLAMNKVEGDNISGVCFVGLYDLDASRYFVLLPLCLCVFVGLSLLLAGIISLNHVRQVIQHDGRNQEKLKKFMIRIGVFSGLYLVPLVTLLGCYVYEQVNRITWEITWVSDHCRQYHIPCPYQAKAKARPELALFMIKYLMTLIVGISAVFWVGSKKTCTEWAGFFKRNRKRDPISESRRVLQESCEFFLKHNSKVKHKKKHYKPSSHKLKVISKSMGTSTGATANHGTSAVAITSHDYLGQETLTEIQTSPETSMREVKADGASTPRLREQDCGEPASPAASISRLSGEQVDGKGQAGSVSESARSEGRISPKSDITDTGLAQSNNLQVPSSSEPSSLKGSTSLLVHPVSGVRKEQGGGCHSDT
UniProt O14641: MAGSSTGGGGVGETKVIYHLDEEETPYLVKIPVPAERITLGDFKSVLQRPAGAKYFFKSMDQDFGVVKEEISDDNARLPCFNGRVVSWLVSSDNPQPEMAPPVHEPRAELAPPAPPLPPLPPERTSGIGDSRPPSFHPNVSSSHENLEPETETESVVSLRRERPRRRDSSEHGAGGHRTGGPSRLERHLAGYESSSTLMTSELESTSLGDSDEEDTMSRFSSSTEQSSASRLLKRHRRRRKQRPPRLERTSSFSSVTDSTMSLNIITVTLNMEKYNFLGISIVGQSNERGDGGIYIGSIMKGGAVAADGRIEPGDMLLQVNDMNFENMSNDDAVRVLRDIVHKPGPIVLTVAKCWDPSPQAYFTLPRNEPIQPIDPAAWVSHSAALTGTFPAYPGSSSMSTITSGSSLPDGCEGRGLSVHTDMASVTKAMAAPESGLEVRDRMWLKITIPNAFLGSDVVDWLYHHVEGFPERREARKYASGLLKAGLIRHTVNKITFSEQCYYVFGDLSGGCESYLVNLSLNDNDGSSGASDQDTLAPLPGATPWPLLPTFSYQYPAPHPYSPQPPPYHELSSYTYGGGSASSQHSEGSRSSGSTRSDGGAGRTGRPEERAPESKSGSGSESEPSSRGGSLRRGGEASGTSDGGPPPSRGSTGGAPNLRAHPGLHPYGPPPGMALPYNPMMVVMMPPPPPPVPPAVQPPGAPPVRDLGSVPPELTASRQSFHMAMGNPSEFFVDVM

No constants are given. Whether binding was seen depends on the method and setting. In cells and extracts the contact can be indirect. Binding calls can cover weak binding; strength is not graded here.

Consider Nluc–DVL2 (from UniProt O14641 1-736), for which the binding result was “binds”.

Values taken from publication PMC6972889, “Structural insight into small molecule action on Frizzleds” (Nature Communications, 2020).
